PMC12040169 (PLOS Biology, 2025)
Read-outs that look alike come from different tables or passages of the source. The list shows a part of the results.

Tested on: T1, CTL2-GFP (C. trachomatis L2/434/Bu, GFP-expressing)
T1 construct: L2/434/Bu, GFP-expressing
Parameters: species or system HeLa; Intracellular C. trachomatis growth in HeLa cells, bulk GFP fluorescence relative to DMSO
Details: bulk GFP, single well, 28.5 h, 10 µM, inhibitor

Row | SMILES | % of control remaining [%] | % of control remaining (Bulk GFP fluorescence) [%]
1 | O=C(c1ccc(F)cc1)N1C2CCC1CC(O)(c1ccccc1F)C2 (centres unmarked) [CBK121719] | 110.791 | –
2 | CCn1ncc(CN(CCN(C)C)Cc2cccs2)c1C [CBK282958] | 101.478 | –
3 | COc1ccc(C(C)C)cc1-c1cnc(N)c(NCc2ccncc2)n1 [CBK063695] | 146.571 | –
4 | CCOC(=O)c1cnc(N2CCOCC2)nc1NCCc1c[nH]c2ccccc12 [CBK093605] | 126.359 | –
5 | O=S(=O)(c1ccc(Cl)cc1)N1CCN(S(=O)(=O)N2CCOCC2)CC1 [CBK266878] | 162.273 | –
6 | OCc1ccccc1-c1cncc(NCCc2c[nH]c3ccccc23)n1 [CBK037852] | 108.269 | –
7 | O=C(Cn1c(=O)cc(O)c2ccccc21)N1CCN(c2ccccn2)CC1 [CBK291117] | 142.08 | –
8 | COc1ccc(Nc2cc(-c3ccc(SC)cc3)ncn2)c(C)c1 [CBK091042] | 153.363 | –
9 | CCOC(=O)CCNC(=O)c1cc2cccc(OC)c2o1 [CBK149816] | 116.909 | –
10 | O=C(O)CC(NC(=O)c1ccccc1)c1ccco1 (centres unmarked) [CBK268843] | 149.635 | –
11 | COc1ccc(OC(C)C(=O)Nc2ccc(S(N)(=O)=O)cc2)cc1 (centres unmarked) [CBK263646] | 130.556 | –
12 | COc1cc(-c2cncc(NCCc3ccncc3)n2)cc(OC)c1OC [CBK065405] | 186.103 | –
13 | Nc1ncc(-c2ccncc2)nc1NCc1cccnc1 [CBK063879] | 167.601 | –
14 | COc1ccc(NC(=O)c2c(NC(=O)CN3CCCC(C)C3)sc3c2CCC3)cc1 (centres unmarked) [CBK265061] | 137.166 | –
15 | O=C(O)c1ccc2c(c1)C(=O)N(c1ccc(/C=C/C(=O)c3ccccc3)cc1)C2=O [CBK261181] | 115.926 | –
16 | Cc1ccc2cccc(OS(=O)(=O)c3ccc(Cl)c(C)c3Cl)c2n1 [CBK263984] | 81.5054 | –
17 | CCC(O)c1cc2n(n1)CCN(C(=O)c1cn(-c3ccccc3)nn1)C2 (centres unmarked) [CBK306708] | 84.2569 | –
18 | COC(=O)c1ccc(COc2nc3ccccc3nc2/C=C/c2cccc([N+](=O)[O-])c2)cc1 [CBK268776] | 138.106 | –
19 | Cc1cccc(C(=O)N2CCN(Cc3cc(=O)n4ccsc4n3)CC2)c1 [CBK305037] | 125.031 | –
20 | O=C(CN1CCOCC1)N1CCc2ccccc21 [CBK200271] | 76.4791 | –
21 | Cc1cc(COC(=O)N2CCCC(F)(F)C2)cc(C)n1 [CBK200151] | 113.953 | –
22 | CCN(CC)CC(=O)Nc1ccc(Br)cc1C(=O)c1ccccc1 [CBK262983] | 114.488 | –
23 | c1ccc(CNCc2nc(-c3ccccc3)no2)cc1 [CBK024404] | 103.644 | –
24 | Cc1cnn(CC(=O)NC(C)c2cc3cc(Cl)ccc3o2)c1 (centres unmarked) [CBK281447] | 123.377 | –
25 | O=C1NC2(CCN(C(=O)CCc3ccc(-c4ccccc4)o3)CC2)Nc2ccccc21 [CBK286316] | 55.1481 | –
26 | CC(NC(=O)CCc1cscn1)c1nc(-c2ccncc2)cs1 (centres unmarked) [CBK305260] | 140.48 | –
27 | CC(CN1CCOCC1)C(=O)N1CC(C(=O)N2CCN(c3ccccc3)CC2)C1 (centres unmarked) [CBK286047] | 122.533 | –

One compound at a time, from the list above. Values in the order: % of control remaining [%] | % of control remaining (Bulk GFP fluorescence) [%]
Cc1cnn(CC(=O)NC(C)c2cc3cc(Cl)ccc3o2)c1 (centres unmarked) [CBK281447] as listed: 123.377 | –
O=C(c1ccc(F)cc1)N1C2CCC1CC(O)(c1ccccc1F)C2 (centres unmarked) [CBK121719] as listed: 110.791 | –

(listing goes on)

Row | SMILES | % of control remaining [%] | % of control remaining (Bulk GFP fluorescence) [%]
28 | CCN1CC2(CCN(Cc3nc4ccccc4s3)CC2)c2ccccc21 [CBK136993] | 92.4987 | –
29 | COc1cncc(-c2cncc(N[C@H](C)c3ccccc3)n2)c1 [CBK065537] | 97.6883 | –
30 | CC(C)C(Nc1nc2ncn(Cc3ccccc3)c2c(=O)[nH]1)C(=O)O (centres unmarked) [CBK261685] | 113.848 | –
31 | Cc1nc(-c2ccco2)nc2sc(C(=O)N(C)CC3COc4ccccc4O3)c(C)c12 (centres unmarked) [CBK295347] | 153.693 | –
32 | COc1ccc(N2C(=O)CSC23C(=O)N(Cc2ccc(Cl)cc2)c2ccccc23)cc1 (centres unmarked) [CBK092396] | 114.914 | –
33 | Cc1ccc(-c2cc(C(=O)N3CCOCC3)c3cc(Br)ccc3n2)cc1 [CBK066901] | 126.67 | –
34 | O=C(C1COc2ccccc2O1)N(Cc1cccnc1)c1nc2c(F)cccc2s1 (centres unmarked) [CBK294421] | 140.46 | –
35 | COc1ccc([C@@]23CC[C@@H](NC(=O)Nc4cc(C)ccc4F)C[C@@H]2N(C)CC3)cc1OC [CBK036509T] | 100.243 | –
36 | CSc1cccc(CN(C)C(=O)c2cc(C#N)c(=O)[nH]c2C)c1 [CBK306839] | 114.077 | –
37 | CC(C)(C)C(=O)NC(c1nccs1)C1CCN(C(=O)C2CC2)CC1 (centres unmarked) [CBK284678] | 124.697 | –
38 | CCC(=O)N[C@H]1CC[C@@]2(Cc3ccc(OC)cc3)CCN(C)[C@H]2C1 [CBK024126] | 133.628 | –
39 | O=C(Nc1ccc(F)cc1)Nc1cccnc1Cl [CBK058509] | 126.025 | –
40 | COc1cccc(Oc2nccnc2-c2cnn(C)c2)c1 [CBK107071] | 87.4025 | –
41 | CN(C)C(=O)CN1C(=O)N2CCCN=C2c2ccc(Cl)cc21 [CBK284392] | 67.4516 | –
42 | O=C(O)CC(C(=O)Nc1ccc(Cl)cc1)C1CCCO1 (centres unmarked) [CBK264583] | 100 | –
43 | COc1cccc(-c2nnc(SCc3nc4ccccc4[nH]3)n2N)c1 [CBK267549] | 145.645 | –
44 | CCc1c(C)nc2ccccc2c1SCC(=O)O [CBK153279] | 114.835 | –
45 | O=C(CCC(=O)c1ccc2c(c1)Cc1ccccc1-2)Nc1ccc(C(=O)O)cc1 [CBK268673] | 114.314 | –
46 | Cc1ccc(C(=O)Nc2ncn(CC(=O)N3CCCCCC3)n2)cc1 [CBK304569] | 89.6533 | –
47 | Cc1occc1-c1nn(C2CCNCC2)c(=O)o1 [CBK284757] | 112.952 | –
48 | O=C(CCN1C(=O)c2ccccc2C1=O)N1CCOCCOCCN(C(=O)CCN2C(=O)c3ccccc3C2=O)CCOCCOCC1 [CBK260964] | 96.9991 | –
49 | O=C(Nc1ccc(N2CCNCC2)nc1)C1CCC1 [CBK004743T] | 182.434 | –
50 | Cn1sc(=O)c2cc(S(=O)(=O)NC3CC3)ccc21 [CBK009163] | 96.4621 | –
51 | O=C(c1cc(F)c(F)cc1F)N1CCC2(CCN(Cc3nc4ccccc4[nH]3)C2)C1 (centres unmarked) [CBK132134] | 102.792 | –
52 | COc1ccccc1OCCn1c(=N)n(CC(N)=O)c2ccccc21 [CBK268822C] | 133.387 | –
53 | OCc1ccccc1-c1cn2ccnc2c(Nc2ccccc2)n1 [CBK037999] | 122.917 | –
54 | CCOc1ccc(-n2c(N)c(C(=O)NCc3ccco3)sc2=S)cc1 [CBK265578] | 119.96 | –

Three compounds out of the list, ordered by length of the SMILES, smallest number first:
Row | SMILES | % of control remaining [%] | % of control remaining (Bulk GFP fluorescence) [%]
39 | O=C(Nc1ccc(F)cc1)Nc1cccnc1Cl [CBK058509] | 126.025 | –
43 | COc1cccc(-c2nnc(SCc3nc4ccccc4[nH]3)n2N)c1 [CBK267549] | 145.645 | –
30 | CC(C)C(Nc1nc2ncn(Cc3ccccc3)c2c(=O)[nH]1)C(=O)O (centres unmarked) [CBK261685] | 113.848 | –

(listing goes on)

Row | SMILES | % of control remaining [%] | % of control remaining (Bulk GFP fluorescence) [%]
55 | Cc1ccccc1NC(=O)NCCCN1CCN(C)CC1 [CBK267837] | 129.314 | –
56 | Cc1nc(CCNC(=O)c2nn(-c3cccc(C(C)C)c3)cc2O)cs1 [CBK305438] | 125.96 | –
57 | COc1ccc(S(=O)(=O)N2CCN(C(=O)c3cc(-c4cccnc4)nc4c(C)cc(C)cc34)CC2)cc1OC [CBK267767] | 85.9313 | –
58 | CCOC(=O)CCNC(=O)C1(c2ccccc2)CCCC1 [CBK149543] | 127 | –
59 | COc1ccc2c(c1)c(C(=O)NCCn1nc(C)cc1C)c(C)n2C [CBK304615] | 97.123 | –
60 | O=C(O)c1ccc(CNCc2c(F)cccc2Cl)cc1 [CBK269496] | – | 125.5
61 | CSCCN1CCC(Oc2cncc(OCC3COc4ccccc4O3)n2)C1 (centres unmarked) [CBK084381] | 101.064 | –
62 | CCc1ccc(NC(=N)Nc2nc(CSc3ncccn3)cc(=O)[nH]2)cc1 [CBK268836] | 141.699 | –
63 | Cc1ccc(C(C)C)c(OCc2ccc(C(=O)O)o2)c1 [CBK078089] | 103.613 | –
64 | CN1CCN(C(=O)CCCN2C(=O)c3cccc4cccc(c34)C2=O)CC1 [CBK262383] | 100 | –
65 | CC1(C)CC(=O)C(C(=S)Nc2ccccc2)=C(O)C1 [CBK288395] | 146.007 | –
66 | O=C(O)Cc1ccc(NC(=S)Nc2ccc([N+](=O)[O-])cc2)cc1 [CBK266959] | 166.113 | –
67 | CN(Cc1ccccc1)C1CCN(Cc2ccccn2)CC1 [CBK264622G] | 100 | –
68 | O=S(=O)(c1ccc(Cl)c(Cl)c1)c1ccc2nccc(N3CCNCC3)c2c1 [CBK036497C] | 112.021 | –
69 | CC1CCN(Cc2c(O)ccc3occ(C(=O)c4ccccc4)c23)CC1 [CBK111319] | 121.517 | –
70 | CN1CCC(N2CC[C@H](c3nnc(-c4cncn4C)o3)C2)CC1 [CBK289403] | 113.152 | –
71 | CCOC(=O)c1c(C)oc2ccc(O)c(CN3CCCCC3)c12 [CBK263838C] | 100 | –
72 | CN1CCN(Cc2c(C3CCCC3)[nH]c3ncccc23)CC1 [CBK285336] | 118.938 | –
73 | CC(C)(N)CN(Cc1ccc(Cl)cc1)C(=O)Nc1ccccc1-c1ccccc1 [CBK004924] | 113.061 | –
74 | Cc1nc2c(c(=O)[nH]1)CN(Cc1cc(F)ccc1F)CC2 [CBK283953] | 115.556 | –
75 | Nc1ncnc(NCCc2ccccc2)n1 [CBK262701] | 132.597 | –
76 | NC1CC(c2cc(NCCCc3nnc4ccccn34)ncn2)C1 (centres unmarked) [CBK307120] | 89.3497 | –
77 | CCc1nnc(CN2CCCC(c3cc(C(N)=O)[nH]n3)C2)o1 (centres unmarked) [CBK305213] | 101.887 | –
78 | FC(F)(F)Oc1ccc(-c2cncc(N3CCN(c4ccncc4)CC3)n2)cc1 [CBK059230C] | 110.768 | –
79 | C(=C\c1cccc(Nc2ccc(Oc3ccccc3)cc2)n1)/c1ccccc1 [CBK037614] | 111.927 | –
80 | CCCn1ncnc1C(C)NC(=O)Nc1ccnn1CC(C)C (centres unmarked) [CBK307545] | 92.5687 | –
